In PubChem BioAssay AID2320 (National Center for Advancing Translational Sciences (NCATS), 2010):
Only a part is listed here, and it is no random draw. Inconclusive results are not listed. Where a call stands in place of a potency, no number is given. Activity calls are given as the source filed them. Calls follow the shape of the full dose curve.

Test: A qHTS for Small Molecule Inhibitors of Shiga Toxin (Confirmatory); also: nearly all actives have a fitted effect of over 75% in size
Potency is read from the fitted curve at half-maximal effect.

## O=C(NCc1ccncc1)C(=O)NCC1OCCN1S(=O)(=O)c1ccc(F)cc1 (configuration not stated)
  Potency: inactive

## Cc1ccc(-c2cc(C(=O)N3N=C(C(F)F)CC3(O)C(F)F)c3ccccc3n2)cc1C (configuration not stated)
  Potency: active: 12.6 µM
